Measurements: publication PMC6152025, “Inhibitors of the Detoxifying Enzyme of the Phytoalexin Brassinin Based on Quinoline and Isoquinoline Scaffolds” (Molecules : A Journal of Synthetic Chemistry and Natural …, 2017)

Tested on: T1, brassinin oxidase (BOLm)
T1 construct: native enzyme, not purified; dialyzed cell-free mycelial protein extract, induced by 3-phenylindole; never expressed heterologously
Assay: HPLC-DAD of indole-3-carboxaldehyde formed, cell-free extract
Type: biochemical, Leptosphaeria maculans
Conditions: 0.10 mM brassinin, 0.10 mM PMS, pH ~8.3, 24 °C

Row | SMILES | % Inhibition ^b / 0.30 mM [%]
1 | Oc1ccc2nc(-c3ccccc3)ccc2c1 [5e, 6-Hydroxy-2-phenylquinoline] | 22 ± 1
2 | c1ccc(-c2cnc3ccccc3c2)cc1 [6a, 3-Phenylquinoline] | 30 ± 4
3 | Oc1ccc2ncc(-c3ccccc3)cc2c1 [6e, 6-Hydroxy-3-phenylquinoline] | 34 ± 2
4 | COc1ccc2ncc(-c3ccccc3)cc2c1 [6f, 6-Methoxy-3-phenylquinoline] | 40 ± 3
5 | Cc1ccc2ncc(-c3ccccc3)cc2c1 [6g, 6-Methyl-3-phenylquinoline] | 32 ± 3
6 | c1ccc(-c2ccc3ncccc3c2)cc1 [7a, 6-Phenylquinoline] | 36 ± 2
7 | Cc1cnc2ccc(-c3ccccc3)cc2c1 [7c, 3-Methyl-6-phenylquinoline] | 33 ± 6
8 | CCc1cnc2ccc(-c3ccccc3)cc2c1 [7d, 3-Ethyl-6-phenylquinoline] | 64 ± 5
9 | CC(C)c1cnc2ccc(-c3ccccc3)cc2c1 [7e, 3-Isopropyl-6-phenylquinoline] | 33 ± 5
10 | c1ccc(-c2ccc3nc(-c4ccccc4)ccc3c2)cc1 [7f, 2,6-Diphenylquinoline] | 19 ± 1
11 | c1ccc(-c2ccc3ncc(-c4ccccc4)cc3c2)cc1 [7g, 3,6-Diphenylquinoline] | 25 ± 1
